Laboratory results as given in PubChem BioAssay AID652054 (National Center for Advancing Translational Sciences (NCATS), 2013).
Values joined by “and” are separate entries in the source; they are usually repeats but may differ in a detail not shown here. Equal values may be shown once. Out of some 360,000 compounds screened, about 9,100 (2.5%) were called active. This list was built around the results that the source calls inconclusive (neither active nor inactive); the mix of calls is not that of the screen. No stated cut-off is given here; in the data, active means max response below about -50%; inconclusive means no clear call, values can overlap the other calls; inactive means above that.

Sequences of proteins named here, by UniProt entry; tags and fusion partners are left off.
UniProt P35462, whole entry, looked up: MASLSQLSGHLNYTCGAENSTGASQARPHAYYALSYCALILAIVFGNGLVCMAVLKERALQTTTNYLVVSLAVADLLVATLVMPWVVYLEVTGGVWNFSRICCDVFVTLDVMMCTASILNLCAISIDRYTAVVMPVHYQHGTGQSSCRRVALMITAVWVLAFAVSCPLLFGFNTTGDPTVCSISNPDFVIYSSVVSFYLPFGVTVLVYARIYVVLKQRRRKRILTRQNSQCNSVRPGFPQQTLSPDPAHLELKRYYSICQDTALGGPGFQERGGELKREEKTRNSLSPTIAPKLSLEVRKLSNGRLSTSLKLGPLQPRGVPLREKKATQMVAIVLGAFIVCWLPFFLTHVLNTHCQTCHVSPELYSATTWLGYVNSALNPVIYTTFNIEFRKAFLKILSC

These compounds were tested against D(3) dopamine receptor (Homo sapiens) (UniProt P35462) (assay: qHTS of D3 Dopamine Receptor Antagonist: qHTS). Settings: D3R cells, DiscoveRx beta-arrestin luminescence, antagonist mode; stronger effect = lower value.
Procedure, shortened: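 Cells plated overnight at 1500 cells/well, then exposed to library compounds with dopamine controls for 90 minutes at 37 degrees C. DiscoveRx reagent added for 30–60 minutes at room temperature; luminescence read, quantitative HTS format.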
On the % scale 0 is the no-effect control and ±100 the full control effect.

Structure (SMILES) | max response, negative = inhibition
N=C1/C(=C/c2ccc(OC(=O)c3ccco3)cc2)C(=O)N=C2SC=CN12 | inactive: -8.98%
CCN1CCN(Cc2ccc(NC(=O)c3cc(NC(=O)C(=O)c4c[nH]c5ccccc45)cc(OC)c3)cc2C(F)(F)F)CC1 | active: -103% and active: -53.6%
CCc1n[nH]c(=S)n1/N=C/c1ccc(N(C)c2ccccc2)cc1 | inconclusive: -38.1%
N#CNC(=Nc1cccc(Cl)c1)Oc1ccccc1 | inactive: -21.3%
CC(=O)N(C1=C(Cl)C(=O)c2ccccc2C1=O)C1CCCCC1 | active: -85%
O=C(Nc1cccc(Oc2ccccc2)c1)C1Cc2c(-c3ccccc3)ccnc2O1 (centres undefined) | inconclusive: -47.5%
COCCn1cnc2c(c1=O)c1nc3ccccc3nc1n2/N=C/c1cccc(OC)c1 | inactive: 28.5%
CN(C)CCC(Oc1ccccc1OCc1ccccc1)c1ccccc1 (centres undefined) | inconclusive: -32%
CCOc1ccc(NC(=S)NNC(=O)c2ccc(Br)cc2)cc1 | inactive: -22.5%
Cc1cc(NC(=O)CC(CN(C)S(=O)(=O)c2ccccc2)c2ccccc2)no1 (centres undefined) | inconclusive: -30.9%
Cc1ccc(C(=O)N2CCC(C(=O)Nc3cccc([N+](=O)[O-])c3)CC2)cc1 | inconclusive: -30.2%
Cc1cc(NS(=O)(=O)c2ccc(-c3ccccc3)cc2)no1 | inconclusive: -38.3%
CN1C(=O)/C(=C/c2cc(N=Nc3ccccc3)ccc2O)SC1=S | active: -135%
O=C(NCc1ccco1)c1cc2n(n1)C(C(F)(F)F)CC(c1ccc(F)cc1)N2 (centres undefined) | inconclusive: -33.1%
CCN1C(=NCC(C)C)N[C@@H](CCc2ccccc2)[C@H](C(=O)NCC(C)C)[C@H]1C | inconclusive: -44.5%
CC(C)C(=O)Nc1cccc(S(=O)(=O)NC2=NCCC2)c1 | inconclusive: -45.4%
CCn1cc(C(=O)NCc2ccc(Cl)cc2)c(=O)c2cc(S(=O)(=O)N(C)C)ccc21 | inconclusive: -37.8%
O=C(Nc1cccs1)OCCN1CCN(Cc2ccccc2)CCC1=O | inconclusive: -30.3%
Cc1nc(Cn2c3ccc(NC(=S)NC4CCCCC4)cc3c(=O)n2C)cs1 | inactive: 0%
Cc1nc(NC(=O)CSc2nc3cccnc3n2C2CCCCC2)sc1C | inconclusive: -36.7%
CCCCNC(=S)NNC(=O)CCn1nc(C)c(Br)c1C | inconclusive: -40.7%
CN1CCN(CCCN(Cc2cccs2)C(=S)Nc2ccc(Cl)cc2)CC1 | inconclusive: -30.2%
COc1ccccc1NC(=O)Nc1ccc2c(c1)nnn2C | inconclusive: -38.3%
CCOCc1cc(CN2CCCC(CNC(=O)c3ccco3)C2)ccc1OC (centres undefined) | inconclusive: -32.9%
O=[N+]([O-])c1ccc(O)c(/C=N/n2c(CO)nc3ccccc32)c1 | active: -54.1%
CN(C)S(=O)(=O)c1ccc2c(c1)/C(=C/c1cc3c([nH]1)CCCC3)C(=O)N2 | active: -86.3%
CC1(C(=O)NCc2ccccc2)CN(S(C)(=O)=O)CC(=O)N1Cc1cccc(C(F)(F)F)c1 (centres undefined) | inconclusive: -33.6%

A few values from the entries so far.
For max response, negative = inhibition, CN(C)S(=O)(=O)c1ccc2c(c1)/C(=C/c1cc3c([nH]1)CCCC3)C(=O)N2 shows active: -86.3%
For max response, negative = inhibition, CCN1CCN(Cc2ccc(NC(=O)c3cc(NC(=O)C(=O)c4c[nH]c5ccccc45)cc(OC)c3)cc2C(F)(F)F)CC1 shows active: -103% and active: -53.6%
For max response, negative = inhibition, CN1CCN(CCCN(Cc2cccs2)C(=S)Nc2ccc(Cl)cc2)CC1 shows inconclusive: -30.2%
For max response, negative = inhibition, CCOc1ccc(NC(=S)NNC(=O)c2ccc(Br)cc2)cc1 shows inactive: -22.5%

Further compounds follow:

Structure (SMILES) | max response, negative = inhibition
CCN(CC)C(=O)C1CCCN(Cc2cccc(Cl)c2)C1 (centres undefined) | inconclusive: -31.3%
CCN1C/C(=C/c2sccc2C)c2nc3ccccc3c(C(=O)O)c2C1 | inconclusive: -36.9%
C=CCc1cccc(/C=N/NC(=O)CNc2ccccc2)c1O | inconclusive: -32.6%
Cc1cccc(NC(=O)c2sc3nc4c(c(-c5ccco5)c3c2N)CCC4)c1 | inconclusive: -31.5%
Cc1onc(-c2ccccc2Cl)c1C(=O)N1CCN(c2ccccc2)CC1 | inconclusive: -43.4%
CCCOc1ccc(F)cc1-c1cc(C(=O)Nc2cc(OC)ccc2OC)[nH]n1 | inconclusive: -38.7%
COCC(C)NCc1cccc([N+](=O)[O-])c1 (centres undefined) | inconclusive: -45.5%
CCCOC(=O)c1c(NC(=O)/C=C/c2cnn(C)c2C)sc(C(=O)OC)c1C | active: -76.9%
O=C1[C@H]2CCCC[C@H]2C(=O)N1CCCCN1CCN(c2nsc3ccccc23)CC1 | active: -116%
CCOC(=O)c1c(NC(=S)Nc2ccccc2)sc2c1CCN(C)C2 | inconclusive: -41.8%
CC1=Nc2cc(C(=O)NCC3CCCO3)ccc2Sc2ccc(C)cc21 (centres undefined) | inconclusive: -37.8%
COCCN1C=C2C(=O)C(C)(OC(=O)CCC(=O)OC)C(=O)C(Br)=C2C=C1c1ccc(OC)cc1 (centres undefined) | inconclusive: -41%
COc1ccccc1N1CCN(C2CCCN(Cc3ccc(Cl)cc3)C2)CC1 (centres undefined) | inconclusive: -31.4%
Cc1nnc(SCC2=C(C(=O)O)N3C(=O)C(NC(=O)COc4ccc(F)cc4)C3SC2)s1 (centres undefined) | inconclusive: -45.2%
O=C(NC1CCS(=O)(=O)C1)c1cn(-c2ccccc2)nc1-c1ccccc1 (centres undefined) | inconclusive: -44.3%
Cc1cc(Cl)c(OCCOCCN2CCCCC2)c(Br)c1 | inconclusive: -44.1%
COC(=O)CCCn1nc(NC(=O)COc2ccc(F)cc2)cc1C | inconclusive: -31.1%
COc1cccc(C(C(=O)NCC2CCCO2)N(C(=O)Cn2nnc3ccccc32)c2ccccc2C(C)=O)c1OC (centres undefined) | inactive: 2.51%
CC1(C)CC(=O)C(C(C2=C(O)CC(C)(C)CC2=O)c2cccnc2)C(=O)C1 (centres undefined) | inconclusive: -39.2%
CN(C)C1(CN=Cc2cc(Cl)cc([N+](=O)[O-])c2O)CCCCC1 | active: -68%
COc1ccc(C2=NS(=O)(=O)N(C)C(C(=O)Nc3ccc(C)cc3)=C2)cc1 | inconclusive: -43.4%
O=C(Nc1cccc(Cl)c1)N(CCCN1CCOCC1)Cc1ccccc1F | inconclusive: -36.9%
COCCn1c(SCC(=O)NC2CCCC2)nnc1C(C)C | inactive: -9.07%
CCOc1ccc(NC2=C(Cl)C(=O)N(C3CCCCC3)C2=O)cc1 | inactive: 0%
Cc1ccc(C(C(=O)NC2CCCCC2)N(Cc2ccco2)C(=O)C2COc3ccccc3O2)o1 (centres undefined) | inconclusive: -44.5%
OC(COc1ccc(Cl)cc1)CN1CCCCC1 (centres undefined) | active: -54.8%
S=C(NCCCc1ccccc1)NC1CCCCC1 | inconclusive: -31.7%
